The target in test [1] is 53BP1, full length (two-hybrid bait) (UniProt Q12888). Description: two-hybrid.
The target in test [2] is 53BP1, endogenous (human (endogenous in U2OS)) (UniProt Q12888). The test can be described thus: co-IP.

The chains behind the UniProt entries cited, without tags or fusion partners.
UniProt Q12888: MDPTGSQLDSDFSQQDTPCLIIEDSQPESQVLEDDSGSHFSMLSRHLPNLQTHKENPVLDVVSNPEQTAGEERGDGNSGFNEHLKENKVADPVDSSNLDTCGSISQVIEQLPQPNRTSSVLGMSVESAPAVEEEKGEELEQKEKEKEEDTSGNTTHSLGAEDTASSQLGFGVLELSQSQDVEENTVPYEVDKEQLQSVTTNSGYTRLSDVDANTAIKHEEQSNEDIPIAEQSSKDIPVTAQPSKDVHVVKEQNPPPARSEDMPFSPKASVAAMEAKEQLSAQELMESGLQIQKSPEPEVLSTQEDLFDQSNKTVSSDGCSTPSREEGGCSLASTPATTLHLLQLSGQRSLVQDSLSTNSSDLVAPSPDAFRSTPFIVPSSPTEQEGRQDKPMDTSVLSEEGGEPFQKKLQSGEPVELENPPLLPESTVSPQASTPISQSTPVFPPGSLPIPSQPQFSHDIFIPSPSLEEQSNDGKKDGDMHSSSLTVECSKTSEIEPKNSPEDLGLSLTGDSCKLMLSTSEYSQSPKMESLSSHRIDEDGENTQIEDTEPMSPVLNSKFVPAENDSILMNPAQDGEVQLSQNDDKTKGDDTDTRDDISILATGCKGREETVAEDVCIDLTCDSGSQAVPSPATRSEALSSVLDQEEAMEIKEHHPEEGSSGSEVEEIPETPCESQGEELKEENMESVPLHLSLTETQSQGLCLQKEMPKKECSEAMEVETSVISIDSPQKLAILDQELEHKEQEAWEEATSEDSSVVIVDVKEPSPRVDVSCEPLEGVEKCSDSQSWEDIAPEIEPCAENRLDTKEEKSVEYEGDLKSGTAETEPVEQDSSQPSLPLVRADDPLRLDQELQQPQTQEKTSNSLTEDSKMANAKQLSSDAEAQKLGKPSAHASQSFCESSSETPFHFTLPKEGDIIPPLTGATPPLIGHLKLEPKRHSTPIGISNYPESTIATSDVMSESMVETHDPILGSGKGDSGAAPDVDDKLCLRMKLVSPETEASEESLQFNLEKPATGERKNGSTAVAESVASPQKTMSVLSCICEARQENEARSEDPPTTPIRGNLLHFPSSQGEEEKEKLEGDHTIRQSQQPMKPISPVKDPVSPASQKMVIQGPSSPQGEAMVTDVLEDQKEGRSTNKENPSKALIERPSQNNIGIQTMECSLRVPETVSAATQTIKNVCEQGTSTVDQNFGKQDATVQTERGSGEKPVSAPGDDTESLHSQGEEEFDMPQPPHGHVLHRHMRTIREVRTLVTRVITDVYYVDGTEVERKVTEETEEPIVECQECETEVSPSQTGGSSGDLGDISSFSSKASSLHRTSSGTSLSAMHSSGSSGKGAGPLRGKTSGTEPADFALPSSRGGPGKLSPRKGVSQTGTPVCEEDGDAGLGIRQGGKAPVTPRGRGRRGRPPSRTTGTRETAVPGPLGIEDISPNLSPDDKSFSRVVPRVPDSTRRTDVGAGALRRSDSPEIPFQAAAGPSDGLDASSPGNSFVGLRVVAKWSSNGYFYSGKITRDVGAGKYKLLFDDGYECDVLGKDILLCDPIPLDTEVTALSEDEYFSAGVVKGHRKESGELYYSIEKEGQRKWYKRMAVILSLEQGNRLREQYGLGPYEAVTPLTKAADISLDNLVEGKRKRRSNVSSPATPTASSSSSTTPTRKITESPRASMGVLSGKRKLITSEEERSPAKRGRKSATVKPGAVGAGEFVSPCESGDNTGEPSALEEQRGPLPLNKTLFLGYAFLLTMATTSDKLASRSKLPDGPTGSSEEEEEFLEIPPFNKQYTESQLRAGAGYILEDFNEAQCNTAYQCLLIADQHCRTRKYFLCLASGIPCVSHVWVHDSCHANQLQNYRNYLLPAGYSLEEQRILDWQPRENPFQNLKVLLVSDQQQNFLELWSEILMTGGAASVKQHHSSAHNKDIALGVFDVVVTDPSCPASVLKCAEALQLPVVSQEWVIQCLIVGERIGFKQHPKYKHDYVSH

Results are given in words; binding and its absence hold for the method and conditions named. For some assays here: In cells and extracts the contact can be indirect. Some binding calls cover weakened binding; strength is not graded here. For some assays here: Where a sequence is shown, tags or fusion partners need not be part of it.

The values below come from doi:10.1101/2020.05.13.094391.

B1: Zinc finger E-box-Binding protein ZEB1, full-length human (two-hybrid fusion) (protein, UniProt P37275-1 1-1124)
chain: MADGPRCKRRKQANPRRNNVTNYNTVVETNSDSDDEDKLHIVEEESVTDAADCEGVPEDDLPTDQTVLPGRSSEREGNAKNCWEDDRKEGQEILGPEAQADEAGCTVKDDECESDAENEQNHDPNVEEFLQQQDTAVIFPEAPEEDQRQGTPEASGHDENGTPDAFSQLLTCPYCDRGYKRFTSLKEHIKYRHEKNEDNFSCSLCSYTFAYRTQLERHMTSHKSGRDQRHVTQSGCNRKFKCTECGKAFKYKHHLKEHLRIHSGEKPYECPNCKKRFSHSGSYSSHISSKKCISLIPVNGRPRTGLKTSQCSSPSLSASPGSPTRPQIRQKIENKPLQEQLSVNQIKTEPVDYEFKPIVVASGINCSTPLQNGVFTGGGPLQATSSPQGMVQAVVLPTVGLVSPISINLSDIQNVLKVAVDGNVIRQVLENNQANLASKEQETINASPIQQGGHSVISAISLPLVDQDGTTKIIINYSLEQPSQLQVVPQNLKKENPVATNSCKSEKLPEDLTVKSEKDKSFEGGVNDSTCLLCDDCPGDINALPELKHYDLKQPTQPPPLPAAEAEKPESSVSSATGDGNLSPSQPPLKNLLSLLKAYYALNAQPSAEELSKIADSVNLPLDVVKKWFEKMQAGQISVQSSEPSSPEPGKVNIPAKNNDQPQSANANEPQDSTVNLQSPLKMTNSPVLPVGSTTNGSRSSTPSPSPLNLSSSRNTQGYLYTAEGAQEEPQVEPLDLSLPKQQGELLERSTITSVYQNSVYSVQEEPLNLSCAKKEPQKDSCVTDSEPVVNVIPPSANPINIAIPTVTAQLPTIVAIADQNSVPCLRALAANKQTILIPQVAYTYSTTVSPAVQEPPLKVIQPNGNQDERQDTSSEGVSNVEDQNDSDSTPPKKKMRKTENGMYACDLCDKIFQKSSSLLRHKYEHTGKRPHECGICKKAFKHKHHLIEHMRLHSGEKPYQCDKCGKRFSHSGSYSQHMNHRYSYCKREAEERDSTEQEEAGPEILSNEHVGARASPSQGDSDERESLTREEDEDSEKEEEEEDKEMEELQEEKECEKPQGDEEEEEEEEEVEEEEVEEAENEGEEAKTEGLMKDDRAESQASSLGQKVGESSEQVSEEKTNEA
With B1, in test [1], the binding entry was “binds”.

B2: ZEB1, endogenous (protein, UniProt P37275 1-1124)
chain: MADGPRCKRRKQANPRRNNVTNYNTVVETNSDSDDEDKLHIVEEESVTDAADCEGVPEDDLPTDQTVLPGRSSEREGNAKNCWEDDRKEGQEILGPEAQADEAGCTVKDDECESDAENEQNHDPNVEEFLQQQDTAVIFPEAPEEDQRQGTPEASGHDENGTPDAFSQLLTCPYCDRGYKRFTSLKEHIKYRHEKNEDNFSCSLCSYTFAYRTQLERHMTSHKSGRDQRHVTQSGCNRKFKCTECGKAFKYKHHLKEHLRIHSGEKPYECPNCKKRFSHSGSYSSHISSKKCISLIPVNGRPRTGLKTSQCSSPSLSASPGSPTRPQIRQKIENKPLQEQLSVNQIKTEPVDYEFKPIVVASGINCSTPLQNGVFTGGGPLQATSSPQGMVQAVVLPTVGLVSPISINLSDIQNVLKVAVDGNVIRQVLENNQANLASKEQETINASPIQQGGHSVISAISLPLVDQDGTTKIIINYSLEQPSQLQVVPQNLKKENPVATNSCKSEKLPEDLTVKSEKDKSFEGGVNDSTCLLCDDCPGDINALPELKHYDLKQPTQPPPLPAAEAEKPESSVSSATGDGNLSPSQPPLKNLLSLLKAYYALNAQPSAEELSKIADSVNLPLDVVKKWFEKMQAGQISVQSSEPSSPEPGKVNIPAKNNDQPQSANANEPQDSTVNLQSPLKMTNSPVLPVGSTTNGSRSSTPSPSPLNLSSSRNTQGYLYTAEGAQEEPQVEPLDLSLPKQQGELLERSTITSVYQNSVYSVQEEPLNLSCAKKEPQKDSCVTDSEPVVNVIPPSANPINIAIPTVTAQLPTIVAIADQNSVPCLRALAANKQTILIPQVAYTYSTTVSPAVQEPPLKVIQPNGNQDERQDTSSEGVSNVEDQNDSDSTPPKKKMRKTENGMYACDLCDKIFQKSSSLLRHKYEHTGKRPHECGICKKAFKHKHHLIEHMRLHSGEKPYQCDKCGKRFSHSGSYSQHMNHRYSYCKREAEERDSTEQEEAGPEILSNEHVGARASPSQGDSDERESLTREEDEDSEKEEEEEDKEMEELQEEKECEKPQGDEEEEEEEEEVEEEEVEEAENEGEEAKTEGLMKDDRAESQASSLGQKVGESSEQVSEEKTNEA
As to B2, the binding result in test [2] is recorded as “binds”.
